# Measurements: PubChem BioAssay AID651640 (Broad Institute, 2012)
# In all, about 350,000 compounds went through this assay and about 6,000 (1.7%) were called active. Inconclusive means that the source gave no clear call. Such entries were picked first, then a sample of the others. Rule as the data show it: active = CPE inhibition above about 20% (passing the limit was not always enough); inconclusive = no clear call, values can overlap the other calls; tested in BHK-21 cells.
# Test: protection of cells from dengue 2 killing – plate reader, single concentration, primary screen (AID 651640);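 also: 0% = median of neutral control wells and 100% = median of positive control wells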
# Conditions: DENV2-infected cells, cytopathic effect rescue, at 9.99 µM, stronger effect = higher value
row,SMILES,CPE inhibition
1,CC1CCN(C(=O)COC(=O)CNC(=O)c2ccccc2F)CC1,active: 69.2%
2,COC(=O)C1=CN(c2ccc(F)cc2)C(N)=C(C#N)C1c1cccc(OC)c1OC (stereo unspecified),inconclusive: 20.9%
3,CCN(CC)C1=NC=CC(c2ccccc2)=CC1C (stereo unspecified),inconclusive: 85.7%
4,COc1ccc(NC(=O)c2cc3ccc4c5ccccc5[nH]c4c3cc2O)cc1,inconclusive: 45.3%
5,CC(C)C[C@@H]1COc2cc(NCCO)ccc2S(=O)(=O)N1,active: 59.4%
6,C[C@H](CO)N1C[C@H](C)[C@@H](CN(C)S(=O)(=O)c2cccs2)Oc2ccc(NC(=O)CCC(F)(F)F)cc2CC1=O,inconclusive: 23.1%
7,CNC(=O)C[C@H]1CC[C@H]2[C@@H](COc3ccc(NC(=O)c4ccc(C#N)cc4)cc3C(=O)N2C)O1,inconclusive: 73%
8,O=C(NCC[C@H]1CC[C@H](NS(=O)(=O)c2ccccc2)[C@H](CO)O1)c1ccccc1F,inactive: -2.22%
9,Nc1c(C(=O)c2ccccc2)sc2nsc(SCCN3CCOCC3)c12,inactive: -3.79%
10,CCOC(=O)c1cc(C(C)(C)C)nc(SC)c1C#N,inconclusive: 66.2%
11,C[C@@H]1CN([C@H](C)CO)C(=O)c2cccc(NS(=O)(=O)c3cn(C)cn3)c2O[C@H]1CN(C)C(=O)NC1CCCCC1,inconclusive: 36.9%
12,c1ccc2c(c1)-c1cccc3cncc-2c13,inconclusive: 27.9%
13,O=C(O)c1ccc(/C=C2/SC(=S)N(Cc3ccccc3)C2=O)cc1,inactive: -5.26%
14,CC(=O)c1cn(C2OC(CO)C3OC(C)(C)OC32)c(=O)n(C)c1=O (stereo unspecified),inactive: 4.19%
15,OCCNCc1c(OCc2ccc(Cl)cc2)ccc2ccccc12,inconclusive: 25.3%
16,COc1ccc2c3c([nH]c2c1)[C@H](CO)N(S(=O)(=O)c1cn(C)cn1)CC31CCN(CC2CCCCC2)CC1,inconclusive: 58.5%
17,CO[C@@H]1CN(C)C(=O)c2ccc(NC(=O)c3cc(C)on3)cc2OC[C@H](C)N(C(=O)C2CC2)C[C@H]1C,active: 32.4%
18,CC(C)(C)S(=O)(=O)N1C[C@H]2CC(=O)C(CCO)=C2[C@@H]1CCO,inconclusive: 23.8%
19,CCN(CCNC(=O)C1CCN(c2nnc(-n3cccc3)s2)CC1)c1ccccc1,inconclusive: 52.3%
20,C[C@@H]1CN([C@H](C)CO)C(=O)Cc2cc(NC(=O)C3CCCCC3)ccc2O[C@@H]1CN(C)S(=O)(=O)c1cn(C)cn1,inconclusive: 22.3%
21,COc1ccccc1C#Cc1ccc([C@@H]2[C@@H](C#N)N(C(=O)C3CCCCC3)[C@@H]2CO)cc1,inconclusive: 26.4%
22,CC(OC(=O)C1CC(=O)N(Cc2ccco2)C1)C(=O)Nc1cccc(C#N)c1 (stereo unspecified),active: 20.7%
23,CCN(C(=O)COC(=O)c1cccnc1SC)c1c(N)n(Cc2ccccc2)c(=O)[nH]c1=O,inconclusive: 27%
24,COCCN(C(=O)COC(=O)c1ccc(C)o1)c1c(N)n(Cc2ccccc2)c(=O)[nH]c1=O,inconclusive: 23.2%
25,CCN1[C@@H]2Cn3c(ccc(/C=C/c4ccccc4)c3=O)[C@H]1[C@@H](C(=O)NC1Cc3ccccc3C1)[C@@H]2CO,active: 32.1%
26,CO[C@@H]1CN(C)C(=O)c2ccc(NC(=O)Nc3cc(F)ccc3F)cc2OC[C@H](C)N(C(=O)c2ccccn2)C[C@H]1C,active: 26.3%

# As a short view, some entries already given:
row,SMILES,CPE inhibition
10,CCOC(=O)c1cc(C(C)(C)C)nc(SC)c1C#N,inconclusive: 66.2%
11,C[C@@H]1CN([C@H](C)CO)C(=O)c2cccc(NS(=O)(=O)c3cn(C)cn3)c2O[C@H]1CN(C)C(=O)NC1CCCCC1,inconclusive: 36.9%
12,c1ccc2c(c1)-c1cccc3cncc-2c13,inconclusive: 27.9%

# In the list so far, two have a tert-butyl group.
row,SMILES,CPE inhibition
10,CCOC(=O)c1cc(C(C)(C)C)nc(SC)c1C#N,inconclusive: 66.2%
18,CC(C)(C)S(=O)(=O)N1C[C@H]2CC(=O)C(CCO)=C2[C@@H]1CCO,inconclusive: 23.8%

# (cont.)

row,SMILES,CPE inhibition
1,CCCc1cc(=O)[nH]c(SCC(=O)NC2CC2)n1,inconclusive: 30.1%
2,Cc1noc(C)c1NC(=O)Nc1ccc2c(c1)CC(=O)N([C@@H](C)CO)C[C@H](C)[C@H](CN(C)C(=O)Nc1ccc(F)cc1)O2,inconclusive: 24.1%
3,CC(C)CCC(O)(c1ccccc1)C(CN1CCOCC1)c1ccccc1 (stereo unspecified),active: 29.8%
4,C=CCNc1nc(N)c([N+](=O)[O-])c(Nc2ccccc2OC)n1,inconclusive: 21.2%
5,CCCCCCN1C[C@H](n2cc(COC(=O)c3ccccc3)nn2)[C@@H](O)C[C@@H]1c1ccc(OC)cc1,inconclusive: 29%
6,O=C(CNC(=O)c1ccc(Br)cc1)OC1CCOC1=O (stereo unspecified),inconclusive: 20.1%
7,CCOc1ccccc1N(CC(=O)NCCSCc1ccco1)S(=O)(=O)c1ccccc1,inconclusive: 51.9%
8,CO[C@H]1CN(C)C(=O)c2cc(NC(=O)c3cnccn3)ccc2OC[C@H](C)NC[C@H]1C,active: 26.8%
9,Cc1ccc(/C=C2\SC(=S)N(NS(=O)(=O)c3ccc(C)cc3)C2=O)cc1,inactive: 11.6%
10,CC(C)NC(=O)N(C)C[C@H]1Oc2ccc(NC(=O)c3ccncc3)cc2CC(=O)N([C@H](C)CO)C[C@@H]1C,inconclusive: 22.7%
11,CCOC(=O)c1[nH]c2ccccc2c1NC(=O)c1ccc2c(c1)OCO2,active: 40.3%
12,COc1cccc(S(=O)(=O)N[C@@H]2CC[C@@H](CCn3cc(-c4ccc(F)cc4)nn3)O[C@H]2CO)c1,inactive: 1.07%
13,O=C(C(Cl)c1ccccc1)N1CCOCC1 (stereo unspecified),inconclusive: 25.1%
14,CCNC(=O)C[C@H]1CC[C@H]2[C@@H](COC[C@@H](O)CN2C(=O)C2CCCC2)O1,active: 107%
15,O=C(N[C@@H]1CC[C@@H](CCNC(=O)C2CCCC2)O[C@@H]1CO)c1ccccn1,inactive: -7.55%
16,COc1ccccc1N1CCN(/N=C/c2cccc(Cl)c2)CC1,inactive: -3.03%
17,C/C=C/c1ccc([C@H]2[C@@H](CO)N3CCCCN(C(=O)Nc4ccc(OC)cc4)C[C@@H]23)cc1,active: 30.2%
18,CSC[C@H]1CN(c2ccccc2)C(=O)[C@@H]1CC(=O)Nc1ccccc1,inconclusive: 34.4%
19,O=C(CSc1ncnc2[nH]ncc12)Nc1nc(-c2ccc(F)c(F)c2)cs1,inconclusive: 20.6%
20,CN(C)C(=O)[C@@H]1[C@@H](CO)[C@@H]2Cn3c(ccc(C4=CCCC4)c3=O)[C@@H]2N1Cc1ccc2c(c1)OCO2,inactive: 15.4%
21,O=C(Nc1ccc2ccccc2c1)[C@@H]1C[C@H]1[C@@H](NP(=O)(c1ccccc1)c1ccccc1)c1ccccc1,active: 40.3%
22,COc1ccc(NC(=O)N(C)C[C@@H]2OCCCC[C@@H](C)Oc3ccc(NC(=O)c4ccncc4)cc3C(=O)N([C@@H](C)CO)C[C@H]2C)cc1,active: 41.1%
23,CCCCCC(=O)N1CC2(CC(c3cccc(NC(=O)c4ccccc4)c3)=NO2)C[C@@H]1C(N)=O (stereo partly specified),inconclusive: 38.8%
24,CCCNC(=O)N(C)C[C@@H]1Oc2cc(C#CCC(C)C)ccc2S(=O)(=O)N([C@@H](C)CO)C[C@H]1C,active: 35.7%
25,C/C(=N\NC(=O)c1ccc(O)cc1O)c1cccnc1,inconclusive: 48.4%
26,O=C(Oc1c(-c2ccccc2)c(=O)n2c3c(cccc13)CC2)c1ccc(Cl)cc1,inconclusive: 36.1%

# Exported with tabs: two of the compounds above
row	SMILES	CPE inhibition
9	Nc1c(C(=O)c2ccccc2)sc2nsc(SCCN3CCOCC3)c12	inactive: -3.79%
24	COCCN(C(=O)COC(=O)c1ccc(C)o1)c1c(N)n(Cc2ccccc2)c(=O)[nH]c1=O	inconclusive: 23.2%

# Next part:

row,SMILES,CPE inhibition
1,Cc1cc(NC(=O)COC(=O)Cn2[nH]c(=O)c3ccccc3c2=O)c([N+](=O)[O-])cc1C,active: 52.1%
2,C[C@@H]1CN([C@@H](C)CO)C(=O)Cc2cc(NC(=O)Nc3ccc4c(c3)OCO4)ccc2O[C@H]1CN(C)C,inactive: 10.4%
3,C[C@H](CO)N1C[C@H](C)[C@H](CN(C)S(C)(=O)=O)Oc2ccc(NC(=O)C3CC3)cc2C1=O,inconclusive: 23.4%
4,C[C@@H]1CN([C@H](C)CO)S(=O)(=O)c2ccc(C#Cc3ccccn3)cc2O[C@@H]1CN(C)CC1CC1,inconclusive: 24.8%
5,COc1ccc(-c2ccc([C@@H]3[C@@H](CO)N(C(=O)NC4CCCC4)[C@H]3C#N)cc2)cc1,active: 22.3%
6,O=C(CSc1nc2ccsc2c(=O)n1Cc1ccccc1)NCC1CCCO1 (stereo unspecified),inconclusive: 22.1%
7,O=C(NCCCn1cccn1)C1CCC(=O)N(Cc2cccc(C(F)(F)F)c2)C1 (stereo unspecified),inactive: 2.98%
8,O=C(NNC(=O)c1ccccc1-n1cccc1)c1cccnc1,inconclusive: 32%
9,Cc1ccc(C)c(S(=O)(=O)N2CCN(CC(=O)Nc3ccc4c(c3)CCC4)CC2)c1,inconclusive: 31.9%
10,COc1ccc(C(=O)N/N=C(\C)CC(=O)Nc2ccc(N(C)C)cc2)c(OC)c1,active: 116%
11,COc1cc2cc(C(=O)NC(C)c3cccc4ccccc34)c(N)nc2cc1OC (stereo unspecified),inconclusive: 31.4%
12,Cc1csc(SCC(=O)Nc2cccc(C)c2C)n1,inconclusive: 27%
13,COc1ccc2[nH]c(CN3CCN(CC(C)C)C(CCO)C3)c(C)c2c1 (stereo unspecified),inactive: 5.5%
14,C[C@@H]1CN([C@H](C)CO)C(=O)c2cc(NS(=O)(=O)c3cccs3)ccc2O[C@@H](C)CCCCO[C@H]1CN(C)C(=O)NC1CCCCC1,inactive: 0.849%
15,CCOc1ccc(S(=O)(=O)N(CC)CC(=O)NCc2ccccn2)cc1C,inconclusive: 44.1%
16,CC1(c2ccccc2)CC(C)(C)N(C(N)=O)c2ccccc21 (stereo unspecified),inconclusive: 26.4%
17,CCC(C)(C)NC(=O)CN(C(=O)C(=O)Nc1ccc2c(c1)OCCO2)C(C)(C)CC,inconclusive: 42.2%
18,Cc1ccc2c(c1)N(CCCC(=O)NCCCN1CCCCC1)C(=O)CO2,inactive: -3.07%
19,C/C=C/c1ccc([C@@H]2[C@H](CO)N3CCCCN(C(=O)Nc4ccc(OC)cc4)C[C@@H]23)cc1,inactive: 4.54%
20,CN1CC[C@@H]2C(=O)N3CCc4ccc(Br)cc4[C@@H]3C[C@@H]21,inconclusive: 20.6%
21,CSc1ccccc1NC(=O)c1cnc2sc(C)cn2c1=O,inconclusive: 38.3%
22,Cc1noc(C)c1S(=O)(=O)N(Cc1ccccc1)C(C)C,inconclusive: 23.8%
23,O=C(Nc1nc2c(Br)cc(Br)cc2c(=O)s1)C1CCC1,inactive: -2.75%
24,C[C@H]1CN([C@@H](C)CO)C(=O)Cc2cc(NC(=O)CCCCCC(=O)Nc3ccccc3N)ccc2O[C@H]1CN(C)S(=O)(=O)c1ccccc1,inactive: -0.51%
